Assay results as given in patent US6558950 (MCGILL UNIVERSITY, dated 2003).
No constants are given. Whether binding was seen depends on the method and setting. Binding seen in cells or lysates may run through a third protein. Some entries that bind do so weakly or less than the wild type. Where a sequence is shown, tags or fusion partners need not be part of it.

Chains of the proteins cited; added tags and fusions are not shown. Lines headed by an entry give the natural chain unless they say otherwise; changes in a name come on top. A line that says so, or that is headed by a name, gives the form on record, which may keep a tag or linker.
HA-tagged Bcl-2 (P10415, form named): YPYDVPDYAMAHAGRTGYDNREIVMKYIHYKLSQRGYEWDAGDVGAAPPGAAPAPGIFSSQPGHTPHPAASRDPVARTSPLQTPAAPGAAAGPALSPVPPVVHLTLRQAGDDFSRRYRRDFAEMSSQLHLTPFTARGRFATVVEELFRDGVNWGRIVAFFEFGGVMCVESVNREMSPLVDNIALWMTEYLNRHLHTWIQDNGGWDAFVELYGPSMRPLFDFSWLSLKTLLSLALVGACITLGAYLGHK
HA-tagged pro-FLICE (Q14790, form named): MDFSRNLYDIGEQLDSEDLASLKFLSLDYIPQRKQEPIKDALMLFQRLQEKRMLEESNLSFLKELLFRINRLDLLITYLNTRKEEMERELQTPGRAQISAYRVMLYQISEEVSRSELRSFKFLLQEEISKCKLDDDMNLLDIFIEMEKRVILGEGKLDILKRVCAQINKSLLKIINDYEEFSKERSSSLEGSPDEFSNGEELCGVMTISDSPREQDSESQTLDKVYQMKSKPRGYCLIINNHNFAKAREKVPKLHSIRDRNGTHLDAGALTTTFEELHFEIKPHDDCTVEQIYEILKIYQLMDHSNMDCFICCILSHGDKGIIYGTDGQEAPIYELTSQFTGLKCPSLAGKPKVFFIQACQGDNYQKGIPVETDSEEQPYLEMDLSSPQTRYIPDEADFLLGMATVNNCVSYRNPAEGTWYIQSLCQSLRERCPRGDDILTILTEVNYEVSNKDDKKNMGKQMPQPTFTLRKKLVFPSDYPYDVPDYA
Myc-tagged Bcl-XL (Q07817, form named): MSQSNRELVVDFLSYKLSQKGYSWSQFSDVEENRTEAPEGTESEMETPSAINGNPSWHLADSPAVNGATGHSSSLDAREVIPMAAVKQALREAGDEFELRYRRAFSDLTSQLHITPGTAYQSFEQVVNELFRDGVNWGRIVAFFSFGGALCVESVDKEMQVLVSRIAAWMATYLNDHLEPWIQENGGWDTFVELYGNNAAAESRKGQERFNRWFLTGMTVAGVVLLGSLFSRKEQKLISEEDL

Legend:
[1] = target: T1, Flag-tagged p28 Bap31 (human) (UniProt P51572); test: anti-Flag co-immunoprecipitation from transfected 293T cells, anti-HA Western blot
T1 sequence: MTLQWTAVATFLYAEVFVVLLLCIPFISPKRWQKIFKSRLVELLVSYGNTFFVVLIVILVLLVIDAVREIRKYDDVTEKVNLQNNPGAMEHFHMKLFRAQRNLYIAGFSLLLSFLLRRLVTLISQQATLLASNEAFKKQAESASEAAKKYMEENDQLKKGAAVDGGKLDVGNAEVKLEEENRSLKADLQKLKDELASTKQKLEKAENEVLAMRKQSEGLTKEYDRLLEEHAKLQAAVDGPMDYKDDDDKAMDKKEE

[2] = target: T1, Flag-tagged p28 Bap31 (human); test: anti-Flag co-immunoprecipitation from transfected 293T cells, anti-Myc Western blot

| binding [1] | binding [2] | Substance |
| --- | --- | --- |
| binds | – | HA-tagged Bcl-2 (from UniProt P10415 1-239) |
| binds | – | HA-tagged pro-FLICE (from UniProt Q14790 1-479) (enzyme) |
| – | binds | Myc-tagged Bcl-XL (from UniProt Q07817 1-233) |
